Measured values taken from US9307761B2, “Microbial composition” (Rohm and Haas Company, priority 2011, dated 2016).
Several values for one entry are separate records, joined by “and”; a condition that tells them apart may be missing. Equal entries are not always repeated. At least one read-out could not be matched to a standard name with certainty.

Tested on: Escherichia coli (E. coli—ATCC #10536)
Test: Synergy tests: high resolution MBC microtiter plate assay, 15 seconds contact, phosphate buffer containing […] dipropylene glycol
Type: cell-based
Settings: E. coli 10536, complete kill in 15 seconds
Source text: The concentrations and ratios may also vary under different test conditions or with different test methods.
One measure of synergy is the industrially accepted method described by Kull, F. C.; Eisman, P. C.; Sylwestrowicz, H. D. and Mayer, R. L., in Applied Microbiology 9:538-541 (1961), using the ratio determined by the formula: Qa/QA+Qb/QB=Synergy Index (“SI”) wherein: • QA=concentration of compound A (first component) in percent, acting alone, which produced an end point (MBC of Compound A). • Qa=concentration of compound A in percent, in the mixture, which produced an end point. • QB=concentration of compound B (second component) in percent, acting alone, which produced an end point (MBC of Compound B). • Qb=concentration of compound B in percent, in the mixture, which produced an end point.
When the sum of Qa/QA and Qb/QB is greater than one, antagonism is indicated. […]
Synergy tests were conducted using standard microtiter plate assays with phosphate buffer containing 3.5% dipropylene glycol (DPG). […] High resolution MBCs were determined by adding varying amounts of microbicide to one column of a microtiter plate and doing subsequent […] dilutions using an automated liquid handling system to obtain a series of closely spaced endpoints. […] The TSB plate was incubated at 37° C. and read for the presence/absence of growth at 24 hours. […]

In the case of Cc1ccc(C(C)C)cc1O [5-isopropyl-2-methylphenol], the “MBC of the component acting alone (QA or QB)” value is reported as 0.3 weight % and 0.2 weight %.
